Reference: doi:10.1101/2023.09.29.560207 (bioRxiv, 2023)
These are yes or no findings as the source states them, for the method shown. For part of these data: Binding seen in cells or lysates may run through a third protein. Some results given as binding are weak or reduced against the parent protein; the word gives no strength. For part of these data: Tags and fused reporters may be left off the sequences shown.

Amino acid sequences for entries named in this document (tags omitted). A change or cut given only in a name is not applied to a line headed by its entry.
UniProt Q13148: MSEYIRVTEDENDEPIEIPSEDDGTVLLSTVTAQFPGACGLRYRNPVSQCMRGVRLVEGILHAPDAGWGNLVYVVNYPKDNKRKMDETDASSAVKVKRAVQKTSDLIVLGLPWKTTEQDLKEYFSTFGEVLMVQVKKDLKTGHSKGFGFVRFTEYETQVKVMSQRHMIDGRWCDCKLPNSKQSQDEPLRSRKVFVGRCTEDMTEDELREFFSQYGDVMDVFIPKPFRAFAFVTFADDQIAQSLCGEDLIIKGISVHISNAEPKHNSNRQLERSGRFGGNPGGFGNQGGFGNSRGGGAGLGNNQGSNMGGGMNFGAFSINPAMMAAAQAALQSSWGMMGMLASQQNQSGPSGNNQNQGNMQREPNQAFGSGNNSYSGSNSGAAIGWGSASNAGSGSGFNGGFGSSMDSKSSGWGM

Legend:
His-MBP-RGNEF^1–275 = molecular target: T1, His-MBP-RGNEF^1–275 (human, UniProt Q8N1W1 1-275); assay: SPR
T1 sequence (looked up): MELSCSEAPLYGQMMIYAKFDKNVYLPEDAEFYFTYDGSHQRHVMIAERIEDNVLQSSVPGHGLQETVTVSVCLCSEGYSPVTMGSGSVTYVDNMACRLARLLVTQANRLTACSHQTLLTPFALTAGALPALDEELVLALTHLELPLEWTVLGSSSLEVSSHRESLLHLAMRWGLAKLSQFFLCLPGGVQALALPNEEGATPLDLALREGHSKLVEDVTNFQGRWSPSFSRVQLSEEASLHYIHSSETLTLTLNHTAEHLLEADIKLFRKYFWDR

[1] = molecular target: T2, NF242 with the small subunit of luciferase (SmBiT) fused to its carboxy-terminal end (human) (UniProt Q8N1W1); assay: split reporter
T2 sequence: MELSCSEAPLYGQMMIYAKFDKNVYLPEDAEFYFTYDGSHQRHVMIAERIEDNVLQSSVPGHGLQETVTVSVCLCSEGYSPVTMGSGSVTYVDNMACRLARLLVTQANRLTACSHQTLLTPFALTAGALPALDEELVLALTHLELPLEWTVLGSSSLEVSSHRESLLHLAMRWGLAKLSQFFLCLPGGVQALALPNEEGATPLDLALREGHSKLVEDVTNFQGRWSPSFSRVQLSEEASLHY

[2] = molecular target: T3, NF242-Δ77-79_P81G (human) (UniProt Q8N1W1); assay: split reporter
T3 sequence: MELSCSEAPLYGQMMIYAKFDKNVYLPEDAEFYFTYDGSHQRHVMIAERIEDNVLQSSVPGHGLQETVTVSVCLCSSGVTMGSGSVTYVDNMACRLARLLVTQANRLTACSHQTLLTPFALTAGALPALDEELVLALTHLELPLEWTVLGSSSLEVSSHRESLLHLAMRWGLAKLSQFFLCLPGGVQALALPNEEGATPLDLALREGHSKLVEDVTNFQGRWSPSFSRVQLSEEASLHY

Substance | binding (His-MBP-RGNEF^1–275) | binding [1] | further results
His-RRM-2 (from UniProt Q13148 177-262) (domain or fragment) | binds weakly | – | –
His-TDP-43^1–102 (from UniProt Q13148 1-102) (domain or fragment) | no binding | – | –
TDP-43^1–192 (NanoBiT construct) (from UniProt Q13148 1-192) (domain or fragment) | – | binds | –
TDP-43^1–274 (NanoBiT construct) (from UniProt Q13148 1-274) (domain or fragment) | – | binds | –
TDP-43^1–366 (NanoBiT construct) (from UniProt Q13148 1-366) (domain or fragment) | – | binds | –
TDP-43^wt with the luciferase subunit fused to its carboxy-terminal end (from UniProt Q13148 1-414) | – | – | binding [2]: no binding
